Results: PubChem BioAssay AID662 (National Center for Advancing Translational Sciences (NCATS), 2007)
Several values for one entry are separate records, joined by “and”; a condition that tells them apart may be missing. Equal entries are not always repeated. Some of the results follow. Further columns of the screen follow, without active or inactive calls. Most of these compounds were active or inconclusive in the main read-out, so they are no random draw. Words in brackets tell the shape of the fitted curve; partial curves, single points and poor fits give uncertain potencies.

Experiment: Cell signaling CRE-BLA (Fsk stim)
Details: CHO CRE-bla reporter (cAMP response element driving beta-lactamase), forskolin EC10, beta-lactamase ratio; measured here: 460 nm blue channel
Summary of the method: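 Beta-lactamase reporter under a cAMP responsive element in CHO cells; compounds tested in titration series against EC10 NKH 477, 3 h at 37 °C. Read-out: CCF4 FRET ratio 460nm/530nm (excitation 405nm) giving %Activity, fitted to AC50.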

Structure (SMILES)	AC50
O=C(NCc1ccccc1)c1cc(-c2cccs2)on1	25.1 µM [falling, partial curve, poor fit]
CC1CCC(NC(=O)Cn2c(=O)[nH]c3ccsc3c2=O)CC1 (configuration not stated)	0.794 µM [rising, full curve, poor fit]
Cc1cccc(C(=O)OCc2cc3ccccc3[nH]c2=O)c1	25.1 µM [rising, single point]
COc1ccc(-c2ccc(Nc3ccc(S(=O)(=O)N4CCCC4)cc3)nn2)cc1OC	6.31 µM [rising, partial curve]
C=CCn1c(SCc2cc(=O)n3ccsc3n2)nc2sc(C)c(C)c2c1=O	0.316 µM [rising, full curve, poor fit]
CN(Cc1ccco1)c1ccnc(-c2cccc(NS(C)(=O)=O)c2)n1	7.94 µM [rising, partial curve]
Cc1cc(C)n(-c2ccc(C(=O)OCC(=O)NCc3ccco3)cc2)n1	25.1 µM [rising, single point]
Cc1ccccc1Cn1c(CN2CCN(C(=O)c3ccco3)CC2)nc2c1c(=O)n(C)c(=O)n2C	20 µM [falling, single point]
c1ccc(SCc2nc(-c3ccccn3)no2)cc1	0.00316 µM [falling, full curve, poor fit]
O=c1c(-c2cccs2)nc2cnc(Oc3ccccc3)nc2n1C1CC1	10 µM [rising, partial curve]
COc1ccccc1N(C(=O)NCc1ccccc1)C1=NCC(C)S1 (configuration not stated)	31.6 µM [falling, single point]
COC(=O)c1c(NC(=O)c2ccco2)sc(C)c1C	10 µM [rising, partial curve]
COc1ccc(NC(=O)CSc2nc3ccccc3c(=O)n2CCC(=O)N2CCCCC2)cc1	12.6 µM [rising, single point]
O=c1c(CCc2ccccc2)nc2cnc(N3CCOCC3)nc2n1CCc1ccccc1	12.6 µM [rising, single point]
Cc1ccc(N2CC(c3nc4ccccc4n3C)CC2=O)cc1C (configuration not stated)	7.94 µM [rising, partial curve]
Cc1ccc(/C(COc2ccccc2O)=N\O)cc1	5.01 µM [falling, partial curve]
COc1ccc(C2c3c(-c4ccccc4O)n[nH]c3C(=O)N2CCc2ccc(OC)c(OC)c2)cc1 (configuration not stated)	20 µM [falling, single point]
CCOC(=O)c1c(-c2ccc(OC)cc2)nc2nonc2c1N	15.8 µM [rising, single point]
COc1ccc(-c2nc(C3CCCCC3)no2)cc1OC	1 µM [rising, partial curve, poor fit]
Cc1nc2cnc(OCc3ccccc3)nc2n(C)c1=O	10 µM [rising, partial curve]
Cc1nnc2n(C3CCCCC3)c(=O)c3c4c(sc3n12)CCC4	1.58 µM [rising, partial curve]
Cc1ccccc1CSc1ncc(C#N)c(N)n1	20 µM [rising, single point]
COc1ccc(CNc2nc3nc(C)cc(C)n3n2)cc1OC	12.6 µM [rising, single point]

Structure (SMILES)	AC50
O=Nc1c(-c2c(O)[nH]c3ccccc23)[nH]c2ccccc12	12.6 µM [falling, partial curve] and 15.8 µM [falling, partial curve]
c1ccc(C2=Nn3c(nnc3-c3cccnc3)SC2)cc1	20 µM [rising, single point]
COc1ccc(Cl)cc1C(=O)Nc1ccccc1N1CCN(C(=O)C(C)C)CC1	10 µM [rising, partial curve]
Cc1cc(Nc2cccc(C)c2C)n2nc(C)nc2n1	10 µM [rising, partial curve]
CN1Cc2cc(C(=O)c3cc(Cl)cc(CSc4ncccn4)c3O)cnc2NC1=O	3.16 µM [rising, full curve]
O=C(CSc1ncn(-c2ccccc2)n1)Nc1ccc(Br)cn1	25.1 µM [rising, single point]
CC[C@@]1(O)C(=O)COc2c1cc1n(c2=O)Cc2c-1nc1cccc(C(C)C)c1c2[Si](C)(C)C	12.6 µM [rising, partial curve]
COc1cccc(NC(=O)Cn2c(=O)n(CCCC(=O)NCc3ccco3)c(=O)c3ccccc32)c1	0.398 µM [falling, partial curve]
[O-][n+]1onc2c1CCC1N(O)C(c3ccccc3)CC21O (configuration not stated)	3.98 µM [rising, partial curve]
O=C(Nc1ccc(F)cc1)N(CCCN1CCOCC1)Cc1cc2cc3c(cc2[nH]c1=O)OCCO3	10 µM [rising, partial curve]
Cc1cc(C)c2c(n1)nn1c(NCCN3CCOCC3)cc(C)nc21	0.251 µM [rising, full curve]
O=C(Nc1ccc(N2CCOCC2)c(Cl)c1)C1CCCCC1	20 µM [rising, single point]
COc1ccc(C)cc1NC(=O)CCC(=O)Nc1ccc2nc(N3CCN(C)CC3)cc(C)c2c1	7.94 µM [rising, partial curve]
CSCCC(NC(=O)c1cc(CC(C)C)oc1C)C(=O)O (configuration not stated)	0.02 µM [falling, full curve, poor fit]
COC(=O)c1sccc1NC(=O)c1ccc(Br)o1	1 µM [rising, partial curve]
O=C(NCc1ccccn1)C1COc2ccccc2O1 (configuration not stated)	10 µM [rising, single point]
COc1ccc(NC(=O)c2cc3c(=O)n(C)c4ccccc4c3n2C)cc1OC	2.51 µM [rising, full curve]
CCCCN1CC(O)=C(c2nc3ccccc3[nH]2)C1=N	7.94 µM [falling, partial curve]
CSCC[C@H](NC(=O)OC(C)(C)C)c1nnc(SCc2ccc(F)cc2)o1	12.6 µM [rising, partial curve]
CC(=O)C1=C(O)C(=O)N(CCc2c[nH]c3ccccc23)C1c1ccc(O)cc1 (configuration not stated)	20 µM [falling, partial curve, poor fit]
Cc1oc(-c2cccc(Cl)c2)nc1CN1CCCC(C(=O)NC(C)c2ccc3c(c2)OCCO3)C1 (configuration not stated)	20 µM [falling, single point]
C=CCNc1nc2c(c(=O)[nH]c(=O)n2C)n1Cc1cccc(C)c1	10 µM [rising, partial curve]
O=C(c1ccccn1)N(Cc1cc2ccccc2[nH]c1=O)C1CCCCC1	3.98 µM [rising, partial curve]

Reformatted comma-delimited: entries from further up.
Structure (SMILES),AC50
COc1cccc(NC(=O)Cn2c(=O)n(CCCC(=O)NCc3ccco3)c(=O)c3ccccc32)c1,"0.398 µM [falling, partial curve]"
[O-][n+]1onc2c1CCC1N(O)C(c3ccccc3)CC21O (configuration not stated),"3.98 µM [rising, partial curve]"
O=C(Nc1ccc(F)cc1)N(CCCN1CCOCC1)Cc1cc2cc3c(cc2[nH]c1=O)OCCO3,"10 µM [rising, partial curve]"
Cc1cc(C)c2c(n1)nn1c(NCCN3CCOCC3)cc(C)nc21,"0.251 µM [rising, full curve]"

The listing continues.

Structure (SMILES)	AC50
O=S(=O)(Nc1cccc(C(F)(F)F)c1)c1cccnc1	0.316 µM [falling, single point]
CC(C)CCNc1nc2c(c(=O)n(Cc3cccc(F)c3)c(=O)n2C)n1C	3.16 µM [rising, single point]
Cc1csc(NC(=O)NC2(C(F)(F)F)Oc3ccccc3O2)n1	0.398 µM [falling, full curve]
CN(C)c1ncnc2ccc(-c3cccc(C#N)c3)cc12	7.94 µM [rising, partial curve]
CCOC(=O)[C@H](N)/C=C(\C)CP(=O)(O)O	31.6 µM [rising, single point]
Cc1coc(C)c1C(=O)CC1(O)C(=O)N(Cc2ccccc2)c2ccccc21 (configuration not stated)	3.98 µM [rising, single point]
CC(C)(C)c1nnc(NC(=O)C2CCN(c3ncccn3)CC2)s1	1 µM [rising, full curve]
O=C(c1nn(Cc2ccccc2)c(=O)c2ccccc12)N1CCN(c2ccccn2)CC1	25.1 µM [rising, single point]
COc1ccccc1-c1nc(NCCNC(C)=O)c2ccccc2n1	10 µM [rising, partial curve]
COc1cc(OC)cc(-c2cc3nc4c(c(N5CCN(c6cnccn6)CC5)n3n2)CCCC4)c1	3.16 µM [rising, partial curve]
O=C1/C(=C/c2ccccc2)[C@@H](NC2CCCCC2)c2ccccc21	1.58 µM [falling, partial curve]
Cc1cc(C(=O)NCc2cccs2)c(C)o1	10 µM [falling, partial curve]
O=C(COc1ccc2c(c1)OCO2)NC12CC3CC(CC(C3)C1)C2	1.26 µM [falling, full curve, poor fit]
CCOc1ccc(Cn2c(SCCCCC#N)nc3c2c(=O)n(C)c(=O)n3C)cc1OCC	10 µM [rising, partial curve]
Cc1ccc(CS(=O)(=O)CCC(=O)NCc2ccccn2)cc1	0.501 µM [falling, partial curve]
CC1(C)CC(=O)C2=C(C1)NC(=O)CC2c1ccc(F)cc1 (configuration not stated)	1 µM [falling, partial curve, poor fit]
CCN(CC)S(=O)(=O)c1ccc(Cl)c(C(=O)Nc2nncs2)c1	1 µM [falling, partial curve, poor fit]
COC(=O)CC[C@@H](C)[C@@H]1CC[C@@H]2[C@@H]3CC[C@H]4C[C@@H](O)CC[C@@]4(C)[C@@H]3CC[C@]21C	5.01 µM [rising, single point]
COC(=O)c1sc2nc3c(cc2c1N)COC(C)(C)C3	10 µM [rising, partial curve]
Cc1cccc(N(CC(=O)N2CCCC2)S(=O)(=O)c2ccccc2)c1C	5.01 µM [rising, single point]
N#Cc1ccc(NC(=O)Nc2ccc(Cl)cc2)cc1	25.1 µM [falling, single point]
